# Library screening results

Sequences of proteins named here, by UniProt entry; tags and fusion partners are left off.
UniProt E9BF75, entry or part of it: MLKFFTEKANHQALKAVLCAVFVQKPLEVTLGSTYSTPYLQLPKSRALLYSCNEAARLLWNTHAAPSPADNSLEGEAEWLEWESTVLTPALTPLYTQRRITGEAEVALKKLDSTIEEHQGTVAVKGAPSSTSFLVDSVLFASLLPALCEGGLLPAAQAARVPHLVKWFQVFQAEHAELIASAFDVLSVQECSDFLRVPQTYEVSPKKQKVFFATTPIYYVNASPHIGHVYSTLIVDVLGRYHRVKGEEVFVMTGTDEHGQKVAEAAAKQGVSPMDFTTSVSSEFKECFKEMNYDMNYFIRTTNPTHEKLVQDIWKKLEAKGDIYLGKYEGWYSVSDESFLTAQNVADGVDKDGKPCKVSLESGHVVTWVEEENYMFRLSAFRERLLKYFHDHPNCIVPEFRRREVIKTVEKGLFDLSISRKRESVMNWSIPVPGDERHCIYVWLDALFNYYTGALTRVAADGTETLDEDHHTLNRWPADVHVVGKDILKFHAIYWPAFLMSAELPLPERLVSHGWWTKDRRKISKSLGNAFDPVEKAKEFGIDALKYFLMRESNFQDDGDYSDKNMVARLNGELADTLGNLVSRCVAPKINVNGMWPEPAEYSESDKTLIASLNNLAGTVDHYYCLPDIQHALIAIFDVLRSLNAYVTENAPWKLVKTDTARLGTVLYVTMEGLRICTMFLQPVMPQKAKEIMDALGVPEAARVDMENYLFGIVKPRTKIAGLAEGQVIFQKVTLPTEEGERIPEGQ

Data taken from ChEMBL document CHEMBL3988442, “University of Dundee, Small-Polar-MMV Screening Library” (2021).

Results are percentages, as filed.
The record does not define 0% and 100%; most values in the screen are far below 50% and negative numbers occur (in some assays of this library far below -100).
Compounds were drawn at random from those tested, without regard to their results.

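Methionyl-tRNA synthetase (putative), Leishmania donovani (UniProt E9BF75). Primary screen of methionyl-tRNA synthetase; the read-out is not stated. The test concentration is not given. The values are filed as inhibition. Size under these conditions: about 68,000 compounds, about 24 of them at 50% or above in at least one test.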

| # | Compound | Inhibition |
|---|---|---|
| 1 | `Cc1cccc(-n2nnnc2C2(NCc3ccco3)CCCCC2)c1` | 15.92 |
| 2 | `Cc1cc(C)cc(CNc2ccc(C(=O)NC(C)CO)cc2)c1` (stereo not shown) | 14.63 |
| 3 | `CC(=O)N(CCC(=O)NC1(C#N)CCC1)Cc1ccccc1` | 2.346 |
| 4 | `CCN(Cc1cn(CC2CCNCC2)nn1)CC1CCCO1` (stereo not shown) | 5.42 |
| 5 | `Cc1noc2nc3c(c(C(=O)/N=c4\[nH]ncs4)c12)CCC3` | 7.592 |
| 6 | `Cc1cc(C)n(CC2CCCN2C(=O)CCc2cscn2)n1` (stereo not shown) | 4.082 |
| 7 | `O=C(NCc1cc(C2CC2)n(C2CCCC2)n1)C1CC1` | 11.83 |
| 8 | `CCOCCN1C[C@H](c2cccc(OC)c2)[C@@H](N)C1` | 9.192 |
| 9 | `Cc1noc(C)c1CNc1cccc(C(=O)N(C)c2ccccc2)c1` | 1.449 |
| 10 | `Cc1cc(C)n(Cc2cc(C(=O)N3CCCC3c3nccs3)n[nH]2)n1` (stereo not shown) | 9.162 |
| 11 | `COc1cc2cc(C(=O)NCCC(=O)O)n(C)c2c(OC)c1OC` | 16.33 |
| 12 | `Cc1cncc(C2CCN(Cc3cnc(C)nc3)CC2)n1` | 11.05 |
| 13 | `COc1ccc2[nH]c(CNc3cc(C4CCNCC4)nc(C)n3)cc2c1` | 19.76 |
| 14 | `CC(=O)NCCNC(=O)CN1CCOC(Cn2cccn2)C1` (stereo not shown) | 9.841 |
| 15 | `Cc1cs/c(=N/C(=O)c2csc(NCC(C)C)n2)[nH]1` | 23.55 |
| 16 | `N#Cc1c(F)cccc1N1CCN(C(=O)Nc2nncs2)CC1` | 10.42 |
| 17 | `O=C(c1cnccn1)N1CCN2C[C@H](OCc3ccccn3)C[C@H]2C1` | 12.13 |
| 18 | `OC(CNCCn1cccn1)c1ccc(F)c(F)c1` (stereo not shown) | 10.49 |
| 19 | `Cc1[nH]c2c(C)ccc(C)c2c1CC(=O)NCCNc1cccnc1` | 15.85 |
| 20 | `CC(C)OC(=O)N1C[C@H]2CC[C@@H]1CN(C(=O)c1ccccn1)C2` | 12.21 |
| 21 | `CCOCC1CN(S(=O)(=O)N(C)C)Cc2cnn(C)c21` (stereo not shown) | 19.5 |
| 22 | `O=C(CCC(F)(F)F)N1CCCC2(CCC(=O)N(CC3CC3)C2)C1` (stereo not shown) | 11.68 |
| 23 | `O=C(c1cc(-n2cccn2)ccn1)N(CC1CCC1)CC(F)(F)F` | 13.7 |
| 24 | `NC(=O)C1CCN(C(=O)CCn2ccc3ccc(Br)cc32)CC1` | 7.576 |
| 25 | `CCc1nsc(N2CCCN(C(=O)c3ccsc3)CC2)n1` | 10.44 |
| 26 | `Cc1ccc(Oc2ncccc2C(=O)N(C)CC2OCCO2)c(C)c1` | 9.722 |
| 27 | `NC(=O)c1cn[nH]c1NC(=O)c1ccc2c(c1)OCO2` | 6.497 |
| 28 | `Cc1n[nH]c(C)c1CCCNCc1cn(CCC(N)=O)c2ccccc12` | 7.229 |
| 29 | `COc1ccc(CNC(=O)Nc2cccnc2OC)cc1O` | 13.19 |
| 30 | `O=C1OCCN1CCSc1nnnn1CC(F)(F)F` | 3.542 |
| 31 | `Cc1cccc(CN2CCN(c3ncnc4[nH]ccc34)CC2CCO)n1` (stereo not shown) | 15.22 |
| 32 | `Cc1nc[nH]c1C(=O)N1CCCC2(CN(C)C(=O)O2)C1` (stereo not shown) | 5.882 |
| 33 | `c1cc(CN2CCCC23CCCN(Cc2ccoc2)C3)ccn1` (stereo not shown) | 6.574 |
| 34 | `Cc1nn(C)c(C)c1CN(C)CC1(O)CCCN(C)C1` (stereo not shown) | 12.46 |
| 35 | `CC(C)CC(=O)NS(=O)(=O)c1ccc2c(c1)OCCCO2` | 5.143 |
| 36 | `CC(C)c1nc2n(n1)CC(NCc1cc3ccccc3o1)CC2` (stereo not shown) | 22.05 |
| 37 | `COc1ccc(/C=C/CN2CCC3(C2)CN(C)C(=O)O3)cc1` (stereo not shown) | 10.13 |
| 38 | `COc1ccc(-c2nnc(SC(C)C(=O)NC3CC3)[nH]2)c(OC)c1` (stereo not shown) | 15.49 |
| 39 | `CS(=O)(=O)CCN(CC1CCCO1)C1CCCC1` (stereo not shown) | 5.236 |
| 40 | `CSCc1cc(F)ccc1CNC(=O)N1CCOCC1` | 1.805 |
| 41 | `CCn1nc2c(cc1=O)CN(Cc1ccc(-n3cccn3)cc1)CC2` | 10.14 |
| 42 | `CC(C)c1cc(C(=O)N2CCc3ccccc3C2C(=O)O)n(C)n1` (stereo not shown) | 8.493 |
| 43 | `Cn1cc(C(=O)N2C[C@H]3C[C@H](Oc4ccccc4)C[C@H]3C2)cn1` | 20.56 |
| 44 | `CC1CCN(S(=O)(=O)c2cccn(CC(=O)NC(C)(C)C)c2=O)CC1` | 12.24 |
| 45 | `CC(C)n1cnnc1CNC(=O)CCCOc1ccccc1F` | -1.863 |
| 46 | `Cc1ccn(CCC(=O)NCc2ccco2)n1` | 9.934 |
| 47 | `Cc1nc(CN2CCO[C@H]3CN(C(=O)c4ccncc4)C[C@H]32)cs1` | 14.38 |
| 48 | `O=C(NC1CC1)N1CCC2(CC1)CC(N1CCOCC1)c1ccccc12` (stereo not shown) | 11.2 |
| 49 | `CCOC[C@@]12CCC[C@@H]1CN(C(=O)c1ccc(OC)cc1)C2` | 2.067 |
| 50 | `O=c1c(Cc2ccc(Cl)cc2Cl)c(O)ccn1CC1CC1` | 20.49 |
| 51 | `CO[C@@H]1CCN(C(=O)Cc2ccsc2)[C@H]1Cc1cccnc1` | 10.44 |
| 52 | `CC(=O)NCC(=O)N1CCc2c(CNc3ncccn3)cncc2C1` | 11.11 |
| 53 | `CCOc1cc(C)c(-c2cc(N)[nH]n2)cc1OCC` | 24.66 |
| 54 | `COCC(=O)N1Cc2nc3c(C)c(-c4cccs4)nn3c(O)c2C1` | 7.862 |
| 55 | `COC1CCCOC12CCN(C(=O)NCCc1cccs1)CC2` (stereo not shown) | 24.37 |
| 56 | `O=C(c1ncccn1)N1C[C@@H]2COC[C@]2(COc2cccnc2)C1` | 17.57 |
| 57 | `CCOc1cccc2c1OCC(=O)N(c1ccc3c(c1)OCO3)C2` | 7.317 |
| 58 | `Cc1nc(C(=O)N2CCCN(Cc3cnn(C)c3)CC2)ccc1C#N` | 10.22 |
| 59 | `CCS(=O)(=O)N1CC(=O)N(CCOc2ccccc2)CC(O)C1` (stereo not shown) | 11.62 |
| 60 | `CC(=O)N1CCCN(C(=O)NC(C)Cn2ccnc2)CC1` (stereo not shown) | 11.45 |
| 61 | `Clc1ccc(OCCNC2(c3ccc(Br)cc3)CCOCC2)cc1` | 12.41 |
| 62 | `CN1C[C@H](COCC2CC2)[C@H]2CCN(Cc3ccco3)CC[C@H]2C1=O` | 11.96 |
| 63 | `CSc1nccn1-c1cccc(C(=O)NCCN2CCS(=O)(=O)CC2)c1` | 17.6 |
| 64 | `COCc1cn(CC2CCN(Cc3nc(C)c[nH]3)CC2)nn1` | 12.27 |
| 65 | `O=c1ccc(-c2cccs2)nn1CN1CCOC(c2ccccc2)C1` (stereo not shown) | 15.45 |
| 66 | `CC(C)c1cc(NC(=O)CN2CCn3c(nnc3C3CC3)C2)on1` | 9.29 |